Experimental data: patent publication US8299020B2, “Antimicrobial peptides and methods of their use” (The Ohio State University Research Foundation, priority 2006, dated 2012)
Entries after “also recorded” stand apart in the source; their conditions may differ. Not every detail of the peptide structures is certain; ends, links or a residue may be inferred.

Chains of the proteins cited; added tags and fusions are not shown. Lines headed by an entry give the natural chain unless they say otherwise; changes in a name come on top. Residues count along the entry.
UniProt P00760, 24-246: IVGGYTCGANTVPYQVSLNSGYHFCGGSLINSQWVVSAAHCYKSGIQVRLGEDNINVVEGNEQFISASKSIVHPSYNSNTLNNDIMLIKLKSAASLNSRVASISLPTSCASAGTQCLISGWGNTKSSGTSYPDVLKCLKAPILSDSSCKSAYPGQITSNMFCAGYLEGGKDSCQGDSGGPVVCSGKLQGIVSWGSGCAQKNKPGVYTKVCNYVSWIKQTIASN
UniProt P16098: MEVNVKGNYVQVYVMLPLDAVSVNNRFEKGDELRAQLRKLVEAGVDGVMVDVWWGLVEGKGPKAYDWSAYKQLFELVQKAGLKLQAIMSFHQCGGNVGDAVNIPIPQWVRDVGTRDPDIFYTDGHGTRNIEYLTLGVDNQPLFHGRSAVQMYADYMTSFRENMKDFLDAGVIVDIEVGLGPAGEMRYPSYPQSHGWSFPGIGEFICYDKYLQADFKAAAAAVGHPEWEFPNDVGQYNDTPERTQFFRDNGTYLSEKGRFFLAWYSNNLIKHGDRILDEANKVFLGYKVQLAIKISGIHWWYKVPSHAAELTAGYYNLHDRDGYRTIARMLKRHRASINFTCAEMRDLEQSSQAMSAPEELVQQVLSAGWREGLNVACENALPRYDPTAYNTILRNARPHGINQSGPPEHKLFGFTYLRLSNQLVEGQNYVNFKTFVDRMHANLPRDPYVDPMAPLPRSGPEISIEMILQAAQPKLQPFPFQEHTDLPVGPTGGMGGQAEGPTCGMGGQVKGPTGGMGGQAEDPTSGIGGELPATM

Columns and labels:
[1] = tested on: Bacillus cereus ATCC 14579; assay: spot-on-lawn bioassay, Bacillus cereus indicator; assay type: cell-based; details: qualitative spot-on-lawn; broth media TSBYE
B. subtilis ATCC 6633 = assay: spot-on-lawn bioassay, B. subtilis indicator; assay type: cell-based; details: qualitative spot-on-lawn; broth media TSBYE
[2] = tested on: Clostridium sporogenes OSU 392; assay: spot-on-lawn bioassay, Clostridium sporogenes indicator; assay type: cell-based; details: qualitative spot-on-lawn; broth media TSBYE
[3] = tested on: Lactobacillus acidophilus ATCC 19992; assay: spot-on-lawn bioassay, Lactobacillus acidophilus indicator; assay type: cell-based; details: qualitative spot-on-lawn; broth media MRS
Lb. casei ATCC 7469 = assay: spot-on-lawn bioassay, Lb. casei indicator; assay type: cell-based; details: qualitative spot-on-lawn; broth media MRS
Lb. plantarum ATCC 8014 = assay: spot-on-lawn bioassay, Lb. plantarum ATCC 8014 indicator; assay type: cell-based, Lactobacillus plantarum; details: qualitative spot-on-lawn; broth media MRS
[4] = tested on: Lactococcus lactis ATCC 11454; assay: spot-on-lawn bioassay, Lactococcus lactis indicator; assay type: cell-based; details: qualitative spot-on-lawn; broth media MRS
[5] = tested on: Leuconostoc mesenteroides; assay: spot-on-lawn bioassay, Leuconostoc mesenteroides indicator; assay type: cell-based; details: qualitative spot-on-lawn; broth media MRS
[6] = tested on: Listeria innocua ATCC 33090; assay: spot-on-lawn bioassay, Listeria innocua indicator; assay type: cell-based; details: qualitative spot-on-lawn; broth media TSBYE
[7] = tested on: L. monocytogenes OSY-8578; assay: spot-on-lawn bioassay, L. monocytogenes OSY-8578 indicator; assay type: cell-based, Listeria monocytogenes; details: qualitative spot-on-lawn; broth media TSBYE
L. monocytogenes Scott A = assay: spot-on-lawn bioassay, L. monocytogenes Scott A indicator; assay type: cell-based, Listeria monocytogenes; details: qualitative spot-on-lawn; broth media TSBYE
Pediococcus cerevisiae = assay: spot-on-lawn bioassay, Pediococcus cerevisiae indicator; assay type: cell-based; details: qualitative spot-on-lawn; broth media MRS
Staphylococcus aureus = assay: spot-on-lawn bioassay, Staphylococcus aureus indicator; assay type: cell-based; details: qualitative spot-on-lawn; broth media TSBYE
[8] = tested on: Streptococcus agalactiae OSU 602; assay: spot-on-lawn bioassay, Streptococcus agalactiae indicator; assay type: cell-based; details: qualitative spot-on-lawn; broth media TSBYE
gram-positive bacteria = assay: bioassay of activity against gram-positive bacteria; assay type: cell-based
gram-negative bacteria = assay: bioassay of activity against gram-negative bacteria; assay type: cell-based
Experimental: Antimicrobial activity determination. A qualitative and quantitative bioassay for antimicrobial potency was done using the spot-on-lawn method. An indicator lawn was prepared by pouring 10 ml soft agar (seeded with 200 μl overnight indicator culture) onto tryptose agar as a basal medium, in a petri dish. Escherichia coli K-12 and Lactobacillus plantarum ATCC 8014 were generally used as the gram-negative and gram-positive sensitive indicators, respectively, but other bacteria were tested to determine the OSY-DF antimicrobial spectrum (Table 1). For qualitative tests, aliquots (10 μl) of cell-free culture supernatant (pH 6.5) were spotted on indicator lawns, and the plates were incubated overnight for inhibition area observation. A clear inhibition area of ≧3 mm in diameter was recorded as positive. For the quantitative measurements, the cell-free culture supernatant was twofold serially diluted and dilutions were spotted onto the indicator lawn as just described. Antimicrobial activity was expressed in AU/ml; these values are the reciprocal of the highest dilution displaying a clear zone of inhibition that corresponds to 1 ml of the nondiluted supernatant.
Separation and purification by HPLC of the OSY-DF peptide. […] Elution was monitored at a wavelength of 220 nm, and fractions were collected manually for the antimicrobial activity bioassay. […]

L. plantarum ATCC 8014 = assay: SDS-PAGE gel overlaid with seeded soft agar; assay type: cell-based, Lactobacillus plantarum; details: zone corresponded to the ~3,000 Da band; FIG. 4
[9] = thermal stability, residual activity by spot-on-lawn bioassay; assay type: physicochemical
[10] = pH stability, residual activity by spot-on-lawn bioassay; assay type: physicochemical; details: different pH values from 2.0 to 9.0; 25° C. for 2 h, neutralized to pH 6.5
ficin = assay: sensitivity to degradative enzymes: ficin; assay type: physicochemical; details: 1:1 vol/vol, 37° C. for 1 h; data not shown
trypsin = target: T1, trypsin (Bos taurus, UniProt P00760); assay: sensitivity to degradative enzymes: trypsin; assay type: physicochemical; details: 1:1 vol/vol, 37° C. for 1 h; data not shown
T1 construct: purchased Sigma

β-amylase = target: T2, β-amylase (Hordeum vulgare, UniProt P16098); assay: sensitivity to degradative enzymes: β-amylase; assay type: physicochemical; details: 1:1 vol/vol, 37° C. for 1 h
T2 construct: purchased Sigma

lipase = assay: sensitivity to degradative enzymes: lipase; assay type: physicochemical; details: 1:1 vol/vol, 37° C. for 1 h
[11] = stability in solution followed by 1D 1H NMR; assay type: physicochemical; details: spectrum recorded more than two months later

In the case of `C=C1NC(=O)C2CSC(C)C(NC(=O)C3CSC(C)C4NC(=O)[C@H](CC(C)C)NC(=O)C(NC(=O)[C@H](CCCCN)NC(=O)C5CSCC(NC(=O)[C@@H](NC(=O)[C@H](CCCCN)NC(=O)[C@@H](NC(=O)/C(=C/C)NC(=O)/C(=C/C)NC(=O)[C@H](CCCCN)NC(=O)[C@@H](NC(=O)[C@@H](NC(=O)C(=C)NC(=O)[C@H](C)NC(C)=O)[C@@H](C)CC)[C@@H](C)CC)[C@@H](C)CC)C(C)C)C(=O)N[C@@H](CCCCN)C(=O)N[C@@H](C)C(=O)N[C@@H](C(C)C)C(=O)N5)C(C)SCC(NC4=O)C(=O)N[C@@H]([C@@H](C)CC)C(=O)N3)C(=O)NCC(=O)NC(CSCC(C(=O)N[C@@H](CCCCN)C(=O)O)NC(=O)[C@H](CC(N)=O)NC1=O)C(=O)N2` (stereo partly drawn) [Paenibacillin, (CH3CO-^1A)-Dha-I-I-K-Dhb-Dhb-I-K-V-A-K-A-V-A-K-Abu-L-Abu-A-I-A-Abu-G-A-A-Dha-N-A-K^30], the Antimicrobial activity [1] was “+ (A clear inhibition area of ≧3 mm in diameter was recorded as positive)”, the Antimicrobial activity (B. subtilis ATCC 6633) was “+ (A clear inhibition area of ≧3 mm in diameter was recorded as positive)” and the Antimicrobial activity [2] was “+ (A clear inhibition area of ≧3 mm in diameter was recorded as positive)”. The Antimicrobial activity [3] was “+ (A clear inhibition area of ≧3 mm in diameter was recorded as positive)”, the Antimicrobial activity (Lb. casei ATCC 7469) was “+ (A clear inhibition area of ≧3 mm in diameter was recorded as positive)” and the Antimicrobial activity (Lb. plantarum ATCC 8014) was “+ (A clear inhibition area of ≧3 mm in diameter was recorded as positive)”. For the same compound, the Antimicrobial activity [4] was “+ (A clear inhibition area of ≧3 mm in diameter was recorded as positive)”, the Antimicrobial activity [5] was “+ (A clear inhibition area of ≧3 mm in diameter was recorded as positive)” and the Antimicrobial activity [6] was “+ (A clear inhibition area of ≧3 mm in diameter was recorded as positive)”. The Antimicrobial activity [7] was “+ (A clear inhibition area of ≧3 mm in diameter was recorded as positive)”, the Antimicrobial activity (L. monocytogenes Scott A) was “+ (A clear inhibition area of ≧3 mm in diameter was recorded as positive)” and the Antimicrobial activity (Pediococcus cerevisiae) was “+ (A clear inhibition area of ≧3 mm in diameter was recorded as positive)”. For the same compound, the Antimicrobial activity (Staphylococcus aureus) was “+ (A clear inhibition area of ≧3 mm in diameter was recorded as positive)”, the Antimicrobial activity [8] was “+ (A clear inhibition area of ≧3 mm in diameter was recorded as positive)” and the “activity against gram-positive bacteria” value (gram-positive bacteria) was “active”. For the same compound, the “activity against gram-negative bacteria” value (gram-negative bacteria) was “inactive”, the “inhibition on unstained SDS-PAGE gel overlaid with soft agar” value (L. plantarum ATCC 8014) was “produced an inhibition zone” and the “residual antimicrobial activity after autoclaving” value ([9]; autoclaved at 121° C. for 5 min) was “retained most of its antimicrobial activity; also recorded: retained its activity”. For the same compound, the “residual antimicrobial activity after heat” value ([9]; held at 30° C. for 3 days) was “retained most of its antimicrobial activity”, the “residual antimicrobial activity after heat” value ([9]; held at 37° C. for 3 days) was “retained most of its antimicrobial activity” and the “residual antimicrobial activity after heat” value ([9]; held at 50° C. for 3 days) was “retained most of its antimicrobial activity”. The “residual antimicrobial activity after heat” value ([9]; held at 75° C. for 3 days) was “retained most of its antimicrobial activity”, the “residual antimicrobial activity after pH treatment” value [10] was “retained most of its antimicrobial activity” and the “loss of antimicrobial activity on digestion with ficin” value (ficin) was “totally”. For the same compound, the “loss of antimicrobial activity on digestion with trypsin” value (trypsin) was “partially”, the “effect of β-amylase on antimicrobial activity” value (β-amylase) was “not affected” and the “effect of lipase on antimicrobial activity” value (lipase) was “not affected”. For the same compound, the “change of 1D 1H NMR spectrum on storage” value [11] was “did not show any noticeable changes”.
